Values from PubChem BioAssay AID1224826 (NIAID, 2016)

Screen: 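Regulators of Tlr4 signalling leading to Tnf-alpha expression in macrophages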 (primary screen)
System: RAW264.7 G9 macrophages from mouse bearing reporters for p65 (GFP) and the Tnf promoter (mCherry)
Knock-down reagent: siRNA pool against mouse genes, 100 nM
Time to read-out: 16 h of LPS stimulation, after 2 days of siRNA transfection
Conditions: bacterial lipopolysaccharide (Salmonella minnesota R595), 10 ng/ml
Measured: 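Imaged Tnf reporter mCherry in nuclei, minus background, normalised per plate to the median and expressed as robust z-scores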
Reading the numbers: Tnf reporter robust z-score: higher = stronger Tnf promoter reporter signal after LPS; Tnf reporter intensity: higher = stronger Tnf promoter reporter signal
Hit rule: 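Called active when robust z-score is at most -1.3, matching the median of the Tlr4 knock-down control, or over 3; control wells and wells with under 50 cells never active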
Meaning of the calls: active = Tnf reporter clearly lowered or raised; inactive = no clear change in Tnf reporter
Shown is one part, drawn at random, of about 17,000 deposited reagents. About 1,110 of all reagents (6.6%) were called active. 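Active means lowered or raised reporter signal; replicate intensities are raw and not normalised per plate.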 A number with no mark means an inactive call. Reagents against one gene are numbered here.

gene symbol	reagent no.	Tnf reporter robust z-score	fewer than 50 cells in well	Tnf reporter intensity, replicate 1	Tnf reporter intensity, replicate 2
Akr1a1 (aldo-keto reductase family 1, member A1)	1	0.98	enough cells in well	275	167
Ddx3y (DEAD box helicase 3, Y-linked)	1		fewer than 50 cells per well; well left out of calls	73.5	151
Zdhhc1 (zinc finger, DHHC domain containing 1)	1	-0.21	enough cells in well	129	101
Or10k2 (olfactory receptor family 10 subfamily K member 2)	1	-1.14	enough cells in well	119	69.4
AI504432 (expressed sequence AI504432)	1	0.52	enough cells in well	207	254
Inhba (inhibin beta-A)	1	0.93	enough cells in well	295	212
Grtp1 (GH regulated TBC protein 1)	1	0.35	enough cells in well	282	179
Tax1bp3 (Tax1 (human T cell leukemia virus type I) binding protein 3)	1	0.83	enough cells in well	149	87
Ptgfrn (prostaglandin F2 receptor negative regulator)	1	0.02	enough cells in well	150	110
Oscp1	1	-0.04	enough cells in well	246	67.7
Strbp (spermatid perinuclear RNA binding protein)	1		fewer than 50 cells per well; well left out of calls	52.3	61.3
Strbp (spermatid perinuclear RNA binding protein)	2	0.86	enough cells in well	237	181
Gata1 (GATA binding protein 1)	1	-0.8	enough cells in well	174	184
Prps1 (phosphoribosyl pyrophosphate synthetase 1)	1	0.62	enough cells in well	240	192
Ncdn (neurochondrin)	1	-0.95	enough cells in well	140	80.2
Plce1 (phospholipase C, epsilon 1)	1	0.05	enough cells in well	131	132
Zfp106 (zinc finger protein 106)	1	0.05	enough cells in well	107	149
Klhl9 (kelch-like 9)	1	-0.74	enough cells in well	90.6	112
Fgd6 (FYVE, RhoGEF and PH domain containing 6)	1	0.88	enough cells in well	384	259
Znrf2 (zinc and ring finger 2)	1	1.8	enough cells in well	166	239
Nabp2 (nucleic acid binding protein 2)	1	-0.14	enough cells in well	263	59.4
Ifnz (interferon zeta)	1	1.08	enough cells in well	262	197
Snrnp70 (small nuclear ribonucleoprotein 70 (U1))	1	0.21	enough cells in well	112	102
Duoxa1 (dual oxidase maturation factor 1)	1	1.11	enough cells in well	310	254
Mcm6 (minichromosome maintenance complex component 6)	1	-0.33	enough cells in well	280	145
Cdc50a (cell division cycle 50 P4-ATPase accessory subunit A)	1		fewer than 50 cells per well; well left out of calls	125	78.9
Or8b12c (olfactory receptor family 8 subfamily B member 12C)	1		fewer than 50 cells per well; well left out of calls	64.2	88.3
Stra8 (stimulated by retinoic acid gene 8)	1	0.36	enough cells in well	123	102
Klhl5 (kelch-like 5)	1	-0.07	enough cells in well	228	101
Lyve1 (lymphatic vessel endothelial hyaluronan receptor 1)	1	2.56	enough cells in well	242	220
AI661453 (expressed sequence AI661453)	1	-1.45 (active)	enough cells in well	98.3	73.8
Atp1a3 (ATPase, Na+/K+ transporting, alpha 3 polypeptide)	1	-0.26	enough cells in well	151	155
Vmn1r212 (vomeronasal 1 receptor 212)	1	0.07	enough cells in well	122	103
Gpr26 (G protein-coupled receptor 26)	1	-0.46	enough cells in well	162	284
Pomgnt2	1	0.33	enough cells in well	167	217
Il36a (interleukin 36A)	1	-0.24	enough cells in well	187	114
Cdc45 (cell division cycle 45)	1	-0.33	enough cells in well	245	159
Jph1 (junctophilin 1)	1	0.06	enough cells in well	183	143
Usp39 (ubiquitin specific peptidase 39)	1	1.29	enough cells in well	187	114
H2-Q10 (histocompatibility 2, Q region locus 10)	1	0.52	enough cells in well	277	223
B4galt2	1	-0.21	enough cells in well	209	173
Nap1l1 (nucleosome assembly protein 1-like 1)	1	0.32	enough cells in well	159	169
Sacs (sacsin)	1	-1.1	enough cells in well	137	59.2
F13a1 (coagulation factor XIII, A1 subunit)	1	0.6	enough cells in well	243	313
Card6 (caspase recruitment domain family, member 6)	1	-1.42 (active)	enough cells in well	69.2	93.1
Atf7 (activating transcription factor 7)	1	-0.2	enough cells in well	124	166
Rpl36 (ribosomal protein L36)	1	-0.66	enough cells in well	96.1	102
Or5p69 (olfactory receptor family 5 subfamily P member 69)	1	-1.57 (active)	enough cells in well	43.3	52.4
Tbc1d10b (TBC1 domain family, member 10b)	1	0.99	enough cells in well	332	108
Phospho2 (phosphatase, orphan 2)	1	1.07	enough cells in well	288	112
Bach1	1	2.59	enough cells in well	266	311
Itpk1 (inositol 1,3,4-triphosphate 5/6 kinase)	1	-0.69	enough cells in well	138	125
Rgs12 (regulator of G-protein signaling 12)	1	1.04	enough cells in well	405	80.1
Zfp322a (zinc finger protein 322A)	1	2.54	enough cells in well	126	351
Lactb (lactamase, beta)	1	0.97	enough cells in well	265	168
Mob3c (MOB kinase activator 3C)	1	1.68	enough cells in well	336	177
Capn7 (calpain 7)	1	0.42	enough cells in well	232	141
1700024B05Rik (RIKEN cDNA 1700024B05 gene)	1	4.45 (active)	enough cells in well	489	229
Rap1gds1 (RAP1, GTP-GDP dissociation stimulator 1)	1	0.53	enough cells in well	362	244
Ptgs1 (prostaglandin-endoperoxide synthase 1)	1	0.63	enough cells in well	304	228
Rnf130 (ring finger protein 130)	1	-1.08	enough cells in well	94.7	68.2
Als2 (alsin Rho guanine nucleotide exchange factor)	1	0.29	enough cells in well	211	156
Vmn1r30 (vomeronasal 1 receptor 30)	1	2.3	enough cells in well	211	158
Dnah2 (dynein, axonemal, heavy chain 2)	1	-0.07	enough cells in well	166	172
Slc6a20b	1	1.04	enough cells in well	136	108
Adgrf4 (adhesion G protein-coupled receptor F4)	1	0.15	enough cells in well	220	320
Cdhr5 (cadherin-related family member 5)	1	-0.56	enough cells in well	175	90.8
Syvn1 (synovial apoptosis inhibitor 1, synoviolin)	1		fewer than 50 cells per well; well left out of calls	163	42.5
Zscan29 (zinc finger SCAN domains 29)	1	-0.37	enough cells in well	162	131
Ms4a6c (membrane-spanning 4-domains, subfamily A, member 6C)	1	0.99	enough cells in well	243	174
C1galt1c1 (C1GALT1-specific chaperone 1)	1		fewer than 50 cells per well; well left out of calls	212	54.8
Cdkn2aip (CDKN2A interacting protein)	1	0.11	enough cells in well	148	83.4
5031434C07Rik (RIKEN cDNA 5031434C07 gene)	1		fewer than 50 cells per well; well left out of calls	185	186
Myl4 (myosin, light polypeptide 4)	1	-0.08	enough cells in well	255	202
Rfx3 (regulatory factor X, 3 (influences HLA class II expression))	1	-0.74	enough cells in well	243	147
